# Results published in patent US20200237871A1, “METHODS FOR MITIGATING LIVER INJURY AND PROMOTING LIVER HYPERTROPHY, REGENERATION AND CELL ENGRAFTMENT IN CONJUNCTION WITH RADIATION AND/OR RADIOMIMETIC TREATMENTS” (Janssen Pharmaceutica NV, priority 2019, published 2020).
# Some of these results come from one statement about several compounds together.
# Tested on: Hemophilia A mice
# Experiment: Drabkin's tail bleeding assay (Example 6)
# Format: in vivo, mouse
# Conditions: HIR 50 Gy + LSECs + drug
# Description: 8-16-week-old male C57/BL6 mice, 8-16-week-old female and male B6129SF2/J mice (donor for isolating LSECs) and 8-16-week-old female and male Hemophilia mice (F^8tm1Kaz) mice were used in this study. Mice were housed in groups of up to 5 in micro-isolator cages on stainless steel racks (Allentown, Inc., Allentown, N.J.) with a total floor space of 500 cm^2. The cages utilized an external water bottle and a dual feeder rack (Fisher Scientific, Hampton, N.H.). These cages were stored in the storage rack which provided temperature, humidity, and ventilation control to each individual cage (Allentown, Inc.). Bed-o'Cobs ⅛″ (Fisher Scientific) were used as bedding material in each cage.
# The methods were identical to Experiment 5 as described above; including the preparation of test articles (solutions of RWJ-800088 and AdHGF), isolation and transplant of LSECs, and Hepatic irradiation.
# The livers of mice were irradiated at 50 Gy by using an X-ray irradiator (SARRP). At 24 hours post-irradiation, the LSECs (1×10^6 cells/mouse) were injected to the mouse through tail vein. […]
# A tail bleeding test was performed in which the extent of bleeding and time to clotting over the course of 30 minutes was evaluated. FVIII protein levels were evaluated by Western blot and mRNA profiling in the blood and liver to evaluate the extent to which there was engraftment of functioning LSECs that produce FVIII. […]
substance,measurement,value
methoxypolyethyleneglycol20000-propionyl-L-Isoleucyl-L-Glutamyl-Glycyl-L-Prolyl-L-Threonyl-L-Leucyl-L-Arginyl-L-Glutaminyl-L-2-Naphthylalanyl-L-Leucyl-L-Alanyl-L-Alanyl-L-Arginyl-Sarcosyl-Ne-(methoxypolyethyleneglycol20000-propionyl-L-Isoleucyl-L-Glutamyl-Glycyl-L-Prolyl-L-Threonyl-L-Leucyl-L-Arginyl-L-Glutaminyl-L-2-Naphthyl alanyl-L-Leucyl-L-Alanyl-L-Alanyl-L-Arginyl-Sarcosyl-)-Lysinamide [RWJ-800088],time at which bleeding stopped (tail bleeding assay),< 10 min
